Laboratory results: the supplement of paper PMC3334620
Whole data set: some 33,000 sequences, median “E-score (-0.5 to 0.5)” near -0.016, cut for the highest 2% near 0.3. The list shows a part of the results.

Target: T1, Yer184c (UniProt P39961)
T1 sequence: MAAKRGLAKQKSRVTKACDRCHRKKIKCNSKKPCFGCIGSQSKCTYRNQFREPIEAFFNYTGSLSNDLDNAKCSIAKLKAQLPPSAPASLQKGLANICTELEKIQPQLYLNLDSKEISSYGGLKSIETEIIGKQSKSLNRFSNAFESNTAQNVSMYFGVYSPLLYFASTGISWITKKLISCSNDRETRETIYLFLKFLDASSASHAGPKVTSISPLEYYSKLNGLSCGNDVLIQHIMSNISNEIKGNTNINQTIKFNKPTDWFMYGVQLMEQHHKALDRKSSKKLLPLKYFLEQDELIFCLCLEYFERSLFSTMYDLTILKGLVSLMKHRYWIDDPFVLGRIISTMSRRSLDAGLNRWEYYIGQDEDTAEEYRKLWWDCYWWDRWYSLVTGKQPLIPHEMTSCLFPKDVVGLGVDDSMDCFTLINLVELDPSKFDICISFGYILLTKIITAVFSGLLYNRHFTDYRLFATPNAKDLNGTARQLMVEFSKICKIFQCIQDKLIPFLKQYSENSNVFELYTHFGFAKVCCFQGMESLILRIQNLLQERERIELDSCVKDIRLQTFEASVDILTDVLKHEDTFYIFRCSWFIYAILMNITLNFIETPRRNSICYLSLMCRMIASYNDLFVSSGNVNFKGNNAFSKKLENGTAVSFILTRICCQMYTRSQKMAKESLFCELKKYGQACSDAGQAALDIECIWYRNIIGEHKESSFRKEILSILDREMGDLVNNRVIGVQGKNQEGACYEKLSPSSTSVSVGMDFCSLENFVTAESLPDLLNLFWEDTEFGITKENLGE
Experiment: PBM E-score (8-mer binding enrichment) (E-score (-0.5 to 0.5)); higher = stronger / more preferred TF binding
Conditions: protein concentration: 100 nM; construct: GST-full length
Procedure, shortened: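 Masliner-normalised scans of fluorescent anti-GST signal were the basis for scoring. That signal came from GST-tagged yeast transcription factors applied at about 100-200 nM to double-stranded universal all-10-mer Agilent arrays on fresh or once-stripped slides. Each ungapped eight-base word, pooled with its reverse complement, received an E-score from the Universal PBM Analysis Suite.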

Sequence | PBM E-score
CAATAATG | -0.0559
TGAAGAAA | 0.217
GAAGACAA | 0.0584
TCCTATAA | -0.102
GCCTAGAA | 0.00564
CTATCCGA | 0.119
CAGACTGG | -0.205
CCACATCC | -0.129
GGTTGTAC | 0.157
CAAAAATA | 0.288
ATGAACGC | 0.0172
GTCGAAAC | -0.0402
ATAGCGTC | -0.147
GCCACGCC | -0.243
CACTTCGA | -0.0274
CTACAGGC | -0.236
TCTTCCAA | 0.0697
TAGCCACA | 0.0103
GACGAGGC | -0.177
AACACCTT | 0.0552
AGTAGACT | -0.0389
GAATACTA | 0.149
ATAGGTTA | -0.0713
GACGTTCC | -0.0502

Laid out differently: entries from further up.
Sequence	PBM E-score
CAATAATG	-0.0559
GCCTAGAA	0.00564
GTCGAAAC	-0.0402
CTACAGGC	-0.236
TAGCCACA	0.0103

Two records drawn at random from those above, as already listed:
Sequence | PBM E-score
AGTAGACT | -0.0389
AACACCTT | 0.0552

(listing goes on)

Sequence | PBM E-score
TGGGGAAA | -0.0527
CGGTCCTA | -0.0474
ACATTGCT | -0.0573
AATTCTAA | 0.0614
CTTGTTGA | 0.0735
AAACATCG | -0.0791
CCTAAATC | 0.057
CATAAAAA | 0.252
GGATTCAA | -0.0823
CAGCATAA | 0.0665
GCCCATCC | -0.224
AATCGGCT | 0.349
AGTATTCG | 0.0724
CAGGGCAG | -0.102
CAAAGTTC | 0.0248
CTTATTAA | 0.15
TACTAACA | 0.0854
CGGCGGCC | 0.0437
CATTGTGC | -0.124
CGTGCGGA | -0.0118
CAGGAGAA | 0.0983
AATCCGTG | 0.0809
GGTACACA | -0.06
CACAGATG | -0.0682

Sequence | PBM E-score
CTAGGTTC | -0.014
ACACCGCG | -0.0537
GAACCGGC | 0.18
CCTTATCA | 0.0526
CCTGTGAG | -0.173
ACATTCTC | -0.0031
ACCCAGAC | -0.0093
GCGTTACA | -0.0168
ATCTGTGG | -0.228
GCAGCAGA | 0.0819
GTTTTCTA | 0.207
ATAATCCG | 0.23
GCCCTGTA | -0.139
AGTACTTC | 0.147
GAAAAAGA | 0.206
GCAAAAAA | 0.229
ATTCCGGA | 0.436
TATAATGA | 0.219
CAGGAATC | -0.0432
AGAACCAG | -0.102
CGCACCAG | 0.0914
GGTTCAAA | 0.231
ATTAAGTG | 0.107
CGTATCCC | -0.137

Sequence | PBM E-score
GCGCGGGA | 0.0199
GCGCCACC | -0.26
ATTTCATC | 0.127
CAGACGCC | -0.161
CCGCCCAA | -0.125
AGGCGAAG | -0.131
ATTTGCAG | 0.0815
GCGTTCCA | 0.0604
CAACGCTC | -0.182
CAGAGGAG | -0.212
CCTTGGCC | -0.324
GCATATTA | 0.076
GCGTTTCC | 0.0119
AGTCGTAG | -0.09
TACAGGAA | 0.181
CTACCTTA | -0.122
ATGATTCG | 0.0269
GAGTTCTA | -0.0729
AGCGTGAT | 0.0161
GTACGTCA | -0.276
CCTTTCAC | -0.0144
ATTGGCCG | 0.143
